“And” between values parts separate entries of the source, which are not always exact repeats. Identical values can stand only once. The list shows a part of the results. These are further read-outs of the screen, such as a control signal, another cell line or another target. No call is given for them. Compounds called inactive in the main read-out are mostly missing here. Words in brackets tell the shape of the fitted curve; partial curves, single points and poor fits give uncertain potencies.
Test: qHTS Assay for Modulators of Lamin A Splicing
Settings: HeLa LMNA splicing GFP/RFP minigene ratio, 48 h
Procedure, shortened: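 S3 HeLa stable clones carrying a lamin A-EGFP splicing minigene plus DsRed2 were seeded at 600 cells/well in Opti-MEM with 2% FBS, pin-dosed and incubated 48 h at 37°C. Acumen cytometry (488 nm) gave the GFP/RFP total-intensity ratio.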

[1] = measured here: RFP viability control channel
[2] = measured here: GFP splicing reporter channel

In the case of `O=C1CCCN1CCCNc1ncnc2c1[nH]c1ccccc12`, the AC50 [1] is reported as 31.6 µM [rising, single point].

In the case of `CCn1c(COc2cccc(C)c2C)nnc1SCC(=O)N1CCN(c2ccc(OC)cc2)CC1`, the AC50 [2] is reported as 7.08 µM [rising, partial curve, poor fit] and the AC50 [1] is reported as 7.08 µM [rising, partial curve].

In the case of `C(=N\n1cnnc1)/c1cn(-c2cccs2)nc1-c1ccccc1`, the AC50 [1] is reported as 17.8 µM [rising, single point].

For `C[C@H]1O[C@@H](n2cc(F)c(=O)[nH]c2=O)[C@H](O)[C@@H]1O`, the AC50 [2] was 15.8 µM [rising, single point] and 1 µM [falling, full curve] and the AC50 [1] was 1.12 µM [rising, full curve, poor fit] and 562 nM [rising, full curve].

In the case of `Cc1cc(C)c2sc(N(CCN(C)C)C(=O)c3cc(Cl)sc3Cl)nc2c1`, the AC50 [2] is reported as 0.0282 µM [rising, full curve, poor fit].

In the case of `N=C(N)c1ccc(Cl)cc1`, the AC50 [2] is reported as 0.501 µM [rising, partial curve, poor fit] and the AC50 [1] is reported as 5.01 µM [rising, partial curve, poor fit].

In the case of `COc1ccc(/C(C)=N/NC(=S)NCCc2ccccc2)cc1`, the AC50 [2] is reported as 2 µM [falling, partial curve, poor fit] and the AC50 [1] is reported as 35.5 µM [rising, single point].

In the case of `COc1ccc(CNc2c(CO)cnc3c2cnn3C)cc1`, the AC50 [2] is reported as 0.282 µM [rising, full curve] and the AC50 [1] is reported as 0.282 µM [rising, partial curve].

With `Cc1ccc(/C=C2/NC(=O)N(c3ccccc3)C2=O)o1` the AC50 [2] was 11.2 µM [falling, single point] and the AC50 [1] was 0.0316 µM [falling, single point].

In the case of `CSc1ccc(CN2C(=O)NC3(CCCCC3)C2=O)cc1`, the AC50 [1] is reported as 0.126 µM [rising, full curve, poor fit].

For `CC1CC(C)CN(C(=O)CCc2ccccc2)C1` (stereo not drawn), the AC50 [2] was 11.2 µM [rising, partial curve, poor fit].

In the case of `CCn1ncc(Cl)c1C(=O)Nc1cc([N+](=O)[O-])ccc1OC`, the AC50 [1] is reported as 0.891 µM [rising, partial curve, poor fit].

With `COc1ccc(O[C@H]2C=C[C@@H](c3ccccc3)O[C@@H]2CO/N=C(\C)CCN2CCc3nc(-c4ccccc4)c(-c4ccccc4)cc3C2)cc1` the AC50 [2] was 11.2 µM [rising, single point] and the AC50 [1] was 14.1 µM [rising, single point].

For `COc1ccccc1CN1CCC(CNC(=O)c2cnn(-c3ccc(C)c(C)c3)c2C2CCN(C(=O)OC(C)(C)C)CC2)CC1`, the AC50 [2] was 17.8 µM [falling, partial curve, poor fit] and the AC50 [1] was 11.2 µM [falling, partial curve, poor fit].

For `O=C(c1ccccc1)c1ccc(-c2ccc(O)cc2)cc1`, the AC50 [1] was 6.31 µM [rising, single point].

With `Cc1ccc(N2CCN(c3nc4c(S(=O)(=O)c5ccc(C)c(C)c5)nnn4c4ccccc34)CC2)c(C)c1` the AC50 [1] was 0.02 µM [falling, full curve, poor fit].

For `Cc1cccc(OCC(=O)NC2CCCc3ccccc32)c1C` (stereo not drawn), the AC50 [1] was 35.5 µM [rising, single point].

With `CCC1CCCCN1C(=O)CSc1nnc(-c2ccc(Cl)s2)o1` (stereo not drawn) the AC50 [1] was 31.6 µM [rising, single point].

For `CCOc1ccc(CN(C)CC(=O)Nc2cc(OC)c([N+](=O)[O-])cc2C)cc1`, the AC50 [1] was 1.12 µM [rising, partial curve, poor fit].

For `CC(C)c1ccc2oc(=O)cc(CN3CCN(c4ccc(F)cc4)CC3)c2c1`, the AC50 [2] was 20 µM [rising, single point] and the AC50 [1] was 35.5 µM [rising, single point].

For `Cc1oc(=O)c(NC(=O)c2ccc(Cl)cc2)cc1C(=O)c1ccccc1`, the AC50 [2] was 10 µM [falling, partial curve] and the AC50 [1] was 5.62 µM [falling, single point].

For `O=C(c1cc([N+](=O)[O-])ccc1Cl)N1CCN(c2ccc(F)cc2)CC1`, the AC50 [1] was 35.5 µM [rising, single point].

With `Cc1ccc(Nc2nc(N3CCOCC3)c3ccccc3n2)cc1` the AC50 [1] was 20 µM [rising, partial curve].

For `Cc1cncn1CCc1nc2c3ccccc3nc(SCC(=O)Nc3ccccc3F)n2n1`, the AC50 [1] was 35.5 µM [falling, single point].

For `Cc1ccc(-c2nnc(Nc3cccc(C(F)(F)F)c3)c3ccccc23)cc1S(=O)(=O)N1CCOCC1`, the AC50 [2] was 2.51 µM [rising, partial curve] and the AC50 [1] was 1.41 µM [rising, partial curve].

In the case of `O=S(=O)(c1ccc(NC(=S)N/N=C/c2ccc(N3CCOCC3)cc2)cc1)N1CCOCC1`, the AC50 [2] is reported as 10 µM [rising, partial curve] and the AC50 [1] is reported as 11.2 µM [rising, partial curve].

For `Cc1ccc(S(=O)(=O)Cn2nnnc2CN2CCCC3(CCCCC3)C2)cc1`, the AC50 [1] was 15.8 µM [rising, partial curve].

With `COc1cc(S(=O)(=O)Nc2cccc(C)c2)ccc1N=Cc1c(C)[nH]n(-c2ccccc2)c1=O` the AC50 [1] was 14.1 µM [rising, partial curve, poor fit].

For `O=S1(=O)CCC(NC(=S)NC2CCS(=O)(=O)C2)C1` (stereo not drawn), the AC50 [2] was 0.0224 µM [falling, full curve, poor fit].

With `Cc1ccc(Nc2nc(N)nc(-c3oc4ccccc4c3C)n2)cc1` the AC50 [2] was 7.94 µM [falling, partial curve] and the AC50 [1] was 7.94 µM [falling, partial curve, poor fit].

For `COC(=O)c1sc2cccc(F)c2c1S(=O)(=O)N1CCN(c2ccc(C)cc2C)CC1`, the AC50 [1] was 0.00316 µM [falling, full curve, poor fit].

With `COc1ccccc1NC(=O)Cn1cncc1-c1ccc([N+](=O)[O-])cc1` the AC50 [1] was 15.8 µM [falling, partial curve, poor fit].

For `COc1ccc2[nH]c(=O)c(-c3noc(-c4ccccc4)n3)cc2c1`, the AC50 [2] was 1.78 µM [rising, partial curve].

With `OC(CNCc1ccc(-c2ccccc2)cc1)c1ccccc1` (stereo not drawn) the AC50 [1] was 11.2 µM [rising, partial curve].

With `CCn1c(=O)cc(SCC(=O)N2CCCCC2)c2ccccc21` the AC50 [1] was 3.98 µM [rising, full curve, poor fit].

In the case of `CCCNC(=O)CSc1nc2ccccc2c(=O)n1CCC`, the AC50 [2] is reported as 2.82 µM [falling, partial curve, poor fit].

For `C=CCn1c(N)c(C(=O)Nc2ccc(C)c(C)c2)c2nc3ccccc3nc21`, the AC50 [2] was 1 µM [falling, single point] and the AC50 [1] was 0.126 µM [falling, single point].

With `CN(C)c1cc[n+](Cc2ccccc2)cc1` the AC50 [2] was 11.2 µM [rising, partial curve] and the AC50 [1] was 14.1 µM [rising, partial curve].

For `O=c1c(-c2ccc(O)cc2)coc2cc(O)ccc12`, the AC50 [1] was 0.00501 µM [falling, full curve, poor fit].

In the case of `Cc1ccc(C(=O)CC(=O)c2cccc(F)c2)c(O)c1`, the AC50 [1] is reported as 12.6 µM [rising, single point].

For `O=C(CCCN1C(=O)/C(=C\c2cccs2)SC1=S)Nc1ccccn1`, the AC50 [2] was 2.82 µM [falling, single point] and the AC50 [1] was 2.82 µM [falling, partial curve, poor fit].

For `CCOC(=O)N1CCN(C(=O)COc2cccc3c2CCN(Cc2ccccc2F)C3=O)CC1`, the AC50 [2] was 11.2 µM [rising, partial curve, poor fit] and the AC50 [1] was 31.6 µM [rising, single point].

For `Cn1cc(Cl)c(C(=O)NNC(=S)Nc2cccc(Cl)c2)n1`, the AC50 [2] was 3.16 µM [falling, full curve, poor fit] and the AC50 [1] was 3.55 µM [falling, partial curve, poor fit].

For `O=[N+]([O-])c1cc(C(F)(F)F)ccc1NCCc1c[nH]c2ccc(O)cc12`, the AC50 [1] was 12.6 µM [rising, single point].

With `CCOc1ccccc1N1CCN(CC(=O)Nc2cc(C)on2)CC1` the AC50 [1] was 35.5 µM [rising, single point].

In the case of `O=[N+]([O-])c1cc(S(=O)(=O)Nc2ccccc2)ccc1NCc1cccnc1`, the AC50 [1] is reported as 14.1 µM [rising, partial curve, poor fit].

With `O=C(CCS(=O)(=O)c1ccccc1)Nc1nccs1` the AC50 [1] was 12.6 µM [rising, partial curve].

In the case of `C=CCOc1cccc(C2C(C(=O)c3ccc(C)o3)=C(O)C(=O)N2c2nccs2)c1` (stereo not drawn), the AC50 [1] is reported as 12.6 µM [rising, single point].

For `COc1ccc(C2C(CC(=O)O)=C(O)C(=O)N2c2ccccc2)cc1` (stereo not drawn), the AC50 [2] was 35.5 µM [rising, single point].

With `O=C(Nc1ccccc1)N1CCN(c2ccc(C(F)(F)F)cn2)CC1` the AC50 [1] was 11.2 µM [rising, single point].

With `O=C(CSc1nnc(-c2ccc(Br)cc2)n1-c1ccccc1)c1ccccc1` the AC50 [2] was 2 µM [falling, full curve, poor fit] and the AC50 [1] was 15.8 µM [falling, partial curve, poor fit].

With `O=C(N/N=C/c1ccc(C(=O)O)cc1)C1=NNC(c2ccccc2)(c2ccccc2)C1` the AC50 [2] was 0.0355 µM [rising, full curve, poor fit].

In the case of `Cc1cc(NC(=O)CSc2nc(CCC3CCCC3)nc3ccccc23)no1`, the AC50 [2] is reported as 22.4 µM [falling, single point].

With `COc1ccc(C(=O)NCC(c2ccc3c(c2)OCO3)N2CCN(c3ccc(F)cc3)CC2)cc1` (stereo not drawn) the AC50 [2] was 31.6 µM [falling, single point].

— PubChem BioAssay AID1487 (National Center for Advancing Translational Sciences (NCATS), 2009)
